{"source": "patent US6642216B2", "about": "“Isoprenoid pathway inhibitors for stimulating bone growth” (ZymoGenetics Corporation, priority 1996, dated 2003)", "key": {"[1]": {"tested_on": "serum response element (SRE)-luciferase reporter gene / CRE-luciferase reporter gene", "assay": "negative control OBSRE (SRE-luciferase) and/or glucagon (CRE-luciferase) assays", "assay_type": "cell-based, murine", "description": "In the negative control OBSRE assay, a murine osteoblast cell line, such as CCC-4 expressing a serum response element (SRE)-luciferase reporter gene is used (see WO96/07733). In the negative control glucagon assay, a glucagon receptor-positive BHK cell expressing a CRE-luciferase reporter gene is used (see U.S. Pat. No. 5,698,672)."}, "BMP-2 promoter": {"tested_on": "BMP-2 promoter", "assay": "ABA assay: BMP-2 promoter-luciferase reporter in 2T3-BMP-2-LUC osteoblast cells", "assay_type": "cell-based, mouse", "procedure": "These transformed cells are then evaluated for the production of the reporter gene product; compounds that activate the BMP promoter will drive production of the reporter protein, which can be readily assayed.\nThe cells were cultured using α-MEM, 10% FCS with 1% penicillin/streptomycin and 1% glutamine (“plating medium”), and were split 1:5 once per week. For the assay, the cells were resuspended in a plating medium containing 4% FCS, plated in microtiter plates at a concentration of 5×10^3 cells (in 50 μl)/well, and incubated for 24 hours at 37° C. in 5% CO2. To initiate the assay, 50 μl of the test compound or the control in DMSO was added at 2× concentration to each well, so that the final volume was 100 μl. The final serum concentration was 2% FCS, and the final DMSO concentration was 1%.\nThe treated cells were incubated for 24 hours at 37° C. and 5% CO2. The medium was then removed, and the cells were rinsed three times with PBS. After removal of excess PBS, 25 μl of 1× cell culture lysing reagent (Promega #E153A) was added to each well and incubated for at least ten minutes. Optionally, the plates/samples could be frozen at this point. […] Luminescence was measured on an automated 96-well luminometer, and was expressed as either picograms of luciferase activity per well or as picograms of luciferase activity per microgram of protein. […]"}, "[2]": {"tested_on": "ICR Swiss white mice calvaria", "assay": "In vivo murine calvarial bone growth assay", "design": "species or system mouse", "procedure": "Male ICR Swiss white mice, aged 4-6 weeks and weighing 13-26 gm, are employed, using 4-5 mice per group. The calvarial bone growth assay is performed as described in PCT application WO 95/24211, incorporated by reference. Briefly, the test compound or appropriate control vehicle is injected into the subcutaneous tissue over the right calvaria of normal mice. Typically, the control vehicle is the vehicle in which the compound was solubilized, and is PBS containing 5% DMSO or is PBS containing Tween (2 μl/10 ml). The animals are sacrificed on day 14 and bone growth measured by histomorphometry. Bone samples for quantitation are cleaned from adjacent tissues and fixed in 10% buffered formalin for 24-48 hours, decalcified in 14% EDTA for 1-3 weeks, processed through graded alcohols; and embedded in paraffin wax. Three to five μm sections of the calvaria are prepared, and representative sections are selected for histomorphometric assessment of the effects on bone formation and bone resorption. Sections are measured by using a camera lucida attachment to trace directly the microscopic image onto a digitizing plate. Bone changes are measured on sections cut 200 μm apart, over 4 adjacent 1×1 mm fields on both the injected and noninjected sides of the calvaria. […]"}, "rabbit radius defect": {"tested_on": "rabbit radius defect", "assay": "Surgical defect in the rabbit radius (fracture repair)", "assay_type": "in vivo", "settings": "5 mg/disk and 10 mg/disk (both doses); 4 weeks"}, "rabbits": {"tested_on": "rabbits", "settings": "Wang et al. 1995; cited from earlier work"}}, "note": "At least one compound was matched to its structure with a doubt left."}
{"smiles": "CC(C)n1c(/C=C/C(O)CC(O)CC(=O)O)c(-c2ccc(F)cc2)c2ccccc21", "note": "(stereo not drawn) [Fluvastatin, fluvastatin]", "values": [{"measurement": "dose-dependent stimulatory effect in control assays", "setting": "[1]", "value": "not in control assays"}, {"measurement": "dose-dependent stimulatory effect in the ABA assay", "setting": "BMP-2 promoter", "value": "dose-dependent stimulatory effect"}]}
{"smiles": "CCC(C)(C)C(=O)O[C@H]1C[C@@H](C)C=C2C=C[C@H](C)[C@H](CC[C@@H]3C[C@@H](O)CC(=O)O3)[C@H]21", "note": "[Simvastatin, simvastatin]", "values": [{"measurement": "bone stimulatory effect compared with 12.5 μg/kg/day bFGF", "setting": "[2]; 10 mg/kg/day", "value": "comparable"}, {"measurement": "effect on total bone area", "setting": "[2]; varying doses", "value": "dose-dependent increase in total bone area"}, {"measurement": "dose-dependent stimulatory effect in control assays", "setting": "[1]", "value": "not in control assays"}, {"measurement": "X-ray analysis of the bone treatment site", "setting": "rabbit radius defect", "value": "callus formation"}]}
{"smiles": "CC[C@H](C)C(=O)O[C@H]1C[C@H](O)C=C2C=C[C@H](C)[C@H](CC[C@@H](O)C[C@@H](O)CC(=O)O)[C@H]21", "note": "[Pravastatin, pravastatin]", "values": [{"measurement": "dose-dependent stimulatory effect in the ABA assay", "setting": "BMP-2 promoter", "value": "did not exhibit a dose-dependent stimulatory response"}]}
{"smiles": "CC(C)(Oc1ccc(CCNC(=O)c2ccc(Cl)cc2)cc1)C(=O)O", "note": "[bezafibrate]", "values": [{"measurement": "effect on bone formation in the absence of steroid treatment", "setting": "rabbits", "value": "no effect on bone formation"}, {"measurement": "inhibition of the bone resorption resulting from steroid administration", "setting": "rabbits", "value": "able to inhibit the bone resorption"}]}
